The text below walks through data of PubChem BioAssay AID1347426 (Functional Genomics Laboratory (NCATS/FGL), 2020).

Among all 31,000 sequences or so, about 1,400 (4.5%) were called active.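 The calls were made as follows: active = median seed-adjusted z-score above 1 or below -1; inactive = the rest.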 This is one part of the list.

A short description of the assay: Novel Modifiers of Survival Motor Neuron (SMN) Protein: Gene Identification via Genome-wide siRNA Screen. The conditions noted are these: HEK293T SMN2-luciferase reporter, siRNA knockdown, 72 h; actives lie on both sides. The text has this: Spinal muscular atrophy (SMA) is the most common neuromuscular autosomal recessive disorder and one of the leading genetic causes of infant death. SMA results from mutations inducing loss of function or deletion in the survival of motor neuron-1 gene (SMN1), leading to deficiency of the survival motor neuron (SMN) protein. Although a second nearly identical gene, SMN2, is retained in humans, its expression primarily produces an aberrantly spliced isoform that is largely unstable and quickly degraded. We performed a genome-wide RNAi screen using a cell-based reporter assay to identify genes and pathways that modulate SMN protein stability. The screen identified over 200 genes that led to the greatest increase or decrease in luciferase expression.
Using HEK293T cells stably expressing a luciferase reporter that combines the promoter and splicing based cassettes in tandem with the major portion of the native SMN2 cDNA with luciferase, we performed a genome-wide RNAi screen to identify modulators of SMN protein levels. Luciferase is expressed when full-length SMN protein is generated with luminescence signal proportional to SMN protein levels. Our luciferase-based reporter assay was used to screen Ambion Silencer Select Human Druggable Genome siRNA library (10418 genes, 3 unique siRNAs per gene) using lipid-based reverse transfection.
Briefly, 1 pmol of each siRNA was spotted to a well of a 384-well plate (Corning, Corning, NY) and 20 microL of serum-free DMEM containing […] of Lipofectamine RNAiMax (Life Technologies, Carlsbad, CA) was then added to each well. Transfected cells were maintained at 37 degrees C in 5% CO2 for 72 hours, 20 microL of ONE-Glo Reagent (Promega) was added to wells for luciferase quantification. Raw luminescence reads were normalized to Ambion(R) Silencer(R) Negative Control #2 siRNA, then log10 transformed. A robust statistical measure of median absolute deviation (MAD) to standardize siRNA activities from each screen. Common Seed Analysis was used to help prioritize clean hits as opposed to those appearing to arise from seed based off-target effects. Candidate modulators were defined as the genes having a MAD score greater than 1.0 or less than -1.0.
Regarding UCGCAAAGGUGAACACUCATT against PIN1, the median seed-adjusted z-score is inactive: 0.156.
In the case of CUACUUAGAUGAUAACCAATT against NUP98, the median seed-adjusted z-score was inactive: 0.168.
As for GAACAACUCUUGUGAGAUUTT against STC2, the median seed-adjusted z-score was inactive: -0.00039.
For the sequence GGAUUUGUUUGAGUACGAATT against CDC2L6, the median seed-adjusted z-score is inactive: -0.31.
In the case of GGUCUACCAAGAGACAUCATT against MLF2, the median seed-adjusted z-score was inactive: -0.312.
Turning to GUGAUAAUGUUACAGUGCATT against DMTF1, the median seed-adjusted z-score is inactive: 0.396.
As to CACUUUACUUCGAGAAGUATT against SLC25A15, the median seed-adjusted z-score was inactive: -0.0116.
For the sequence GGCCUUACAGGGACAAGUATT against SFTPD, the median seed-adjusted z-score was inactive: 0.289.
Consider CAAGUACUUUGCAGAGGCATT against SULT1A2, for which the median seed-adjusted z-score is inactive: 0.0541.
Consider GAACAUCGAUGGGAAGGAATT against ERG, for which the median seed-adjusted z-score is inactive: 0.629.
For the sequence CGAAUAAUGAUAGGACUAATT against SLC2A12, the median seed-adjusted z-score is inactive: -0.373.
In the case of CAACCAGACGGAGUGCUUUTT against SEMA4G, the median seed-adjusted z-score is inactive: 0.188.
On to GAUUUGUACCCACUACUAUTT against ENPP5, for which the median seed-adjusted z-score is inactive: -0.0499.
Under GGAAGUCGCAGAUCCUGAATT against TSHZ3 stands inactive: 0.301; under AGAGGAAGUUCGCAGUGGATT against ZNF688, inactive: -0.475.
AGACCGAGGAGUUCAACGATT against KLF4: the median seed-adjusted z-score was inactive: 0.883.
As to GGCUUGAGUUCAUUCAGAATT against PKN3, the median seed-adjusted z-score was inactive: 0.476.
With CCAAGUCCAAUGCACCUGUTT against KCTD15, the median seed-adjusted z-score was inactive: 0.982.
Under GGACCGGUCACAGAAGGAATT against ZNF446 stands inactive: 0.0496; under CCCUUUGAGAUGUAAGUUUTT against MPZ, inactive: 0.337; under ACUUGACCCAGACCCUUCATT against ZSCAN2, inactive: -0.428.
On to GCACUGGAGAAGUAUGUGATT against ALOX12B, for which the median seed-adjusted z-score is inactive: 0.0071.
For CAGCGUGCAUUUUCACUAATT against AKAP11, the median seed-adjusted z-score was inactive: -0.0405.
For the sequence GGCAAGAUCUGUACCGUGATT against HPN, the median seed-adjusted z-score was inactive: -0.0237.
For the sequence UGACCUCGAUGAAACCCUUTT against CTDSP2, the median seed-adjusted z-score is inactive: 0.498.
“CUAGUGAUCUUUUAGAGUUTT against CSGALNACT2”: the median seed-adjusted z-score is inactive: 0.236.
Turning to AGACAGACGAUGCUACUUUTT against GSC, the median seed-adjusted z-score is inactive: 0.17.
In the case of GAUCAAAGCUGGUGACCAUTT against CD300A, the median seed-adjusted z-score is inactive: -0.414.
Under CCAUCGAGAGUUCCGGUUUTT against BMP7 stands inactive: -0.893; under CCAUUGAAAGGAUGAAAGATT against CYP3A43, inactive: -0.599; under GCAACAUCGUGUUCUUGAATT against GAL3ST1, inactive: 0.263.
With CAUCCCUAAUCUUCACCAATT against LRP8, the median seed-adjusted z-score is inactive: -0.547.
Consider GAACGGCUUCAGUUAUUGATT against MLLT10, for which the median seed-adjusted z-score is inactive: -0.147.
GGCUCAACACGAUGCUUGATT against TGFBI: the median seed-adjusted z-score is inactive: 0.
Under CCGACACGCUCUACAAUAATT against BRUNOL6 stands inactive: -0.542; under CGUUUAACGACUUACAGGATT against RAP1A, inactive: 0.276; under CCAACAUCGAGAUGAUUGATT against CTTN, inactive: -0.314.
Consider CGUGUACAAGGCUCUAACATT against EPN3, for which the median seed-adjusted z-score was inactive: 0.184.
With GAUCUGAGCUUGUACAGAATT against PSMC2, the median seed-adjusted z-score was active: -1.96.
Turning to GAAGGAAUUUCAUUUGACATT against DHX38, the median seed-adjusted z-score was inactive: -0.723.
As to CCACCAUCCUGUACAACUUTT against TP73, the median seed-adjusted z-score was inactive: 0.353.
Consider GGGACAUACUCAUGGACAATT against ZSCAN16, for which the median seed-adjusted z-score is inactive: -0.274.
With GUGGGAGUCGGGACAUAUATT against MAFK, the median seed-adjusted z-score is active: 1.73.
On to CCUGCACUCCGUGAAUGAATT against QSOX1, for which the median seed-adjusted z-score was inactive: -0.154.
Regarding GGUAUUACGUUUUGUCAAATT against RAB5B, the median seed-adjusted z-score is inactive: 0.299.
For the sequence GAAUUUCCAGAAGUCACUATT against KIF9, the median seed-adjusted z-score was inactive: 0.
Consider CCAGAGAUUUAUCAACUUUTT against NPL, for which the median seed-adjusted z-score was inactive: -0.0324.
Under CUACCCACCUGAGACUGCATT against SMYD5 stands inactive: -0.217; under CGUCAAAAGAGCCCAUAAATT against ENPP5, inactive: -0.0499.
Regarding CAAAGAGGGUUGUCCGUGATT against LYZ, the median seed-adjusted z-score is inactive: -0.0538.
Take CAGAAAGUGUUGAUAUUAUTT against THUMPD2: the median seed-adjusted z-score was inactive: -0.129.
GGACUGCACUACUCCAUGATT against ADAMTS2: the median seed-adjusted z-score was inactive: -0.338.
Take CAAUAUCAAGAAUCUAGUUTT against RBP4: the median seed-adjusted z-score is inactive: 0.0208.
